Data as given in publication PMC11344771.
These are yes or no findings as the source states them, for the method shown. Binding can be weak; no strength is given.

By UniProt entry, the sequences of proteins in these tests, tags left out. Where a name states a change or a piece, a line headed by the entry shows the natural chain unless it says otherwise.
UniProt Q96PY5: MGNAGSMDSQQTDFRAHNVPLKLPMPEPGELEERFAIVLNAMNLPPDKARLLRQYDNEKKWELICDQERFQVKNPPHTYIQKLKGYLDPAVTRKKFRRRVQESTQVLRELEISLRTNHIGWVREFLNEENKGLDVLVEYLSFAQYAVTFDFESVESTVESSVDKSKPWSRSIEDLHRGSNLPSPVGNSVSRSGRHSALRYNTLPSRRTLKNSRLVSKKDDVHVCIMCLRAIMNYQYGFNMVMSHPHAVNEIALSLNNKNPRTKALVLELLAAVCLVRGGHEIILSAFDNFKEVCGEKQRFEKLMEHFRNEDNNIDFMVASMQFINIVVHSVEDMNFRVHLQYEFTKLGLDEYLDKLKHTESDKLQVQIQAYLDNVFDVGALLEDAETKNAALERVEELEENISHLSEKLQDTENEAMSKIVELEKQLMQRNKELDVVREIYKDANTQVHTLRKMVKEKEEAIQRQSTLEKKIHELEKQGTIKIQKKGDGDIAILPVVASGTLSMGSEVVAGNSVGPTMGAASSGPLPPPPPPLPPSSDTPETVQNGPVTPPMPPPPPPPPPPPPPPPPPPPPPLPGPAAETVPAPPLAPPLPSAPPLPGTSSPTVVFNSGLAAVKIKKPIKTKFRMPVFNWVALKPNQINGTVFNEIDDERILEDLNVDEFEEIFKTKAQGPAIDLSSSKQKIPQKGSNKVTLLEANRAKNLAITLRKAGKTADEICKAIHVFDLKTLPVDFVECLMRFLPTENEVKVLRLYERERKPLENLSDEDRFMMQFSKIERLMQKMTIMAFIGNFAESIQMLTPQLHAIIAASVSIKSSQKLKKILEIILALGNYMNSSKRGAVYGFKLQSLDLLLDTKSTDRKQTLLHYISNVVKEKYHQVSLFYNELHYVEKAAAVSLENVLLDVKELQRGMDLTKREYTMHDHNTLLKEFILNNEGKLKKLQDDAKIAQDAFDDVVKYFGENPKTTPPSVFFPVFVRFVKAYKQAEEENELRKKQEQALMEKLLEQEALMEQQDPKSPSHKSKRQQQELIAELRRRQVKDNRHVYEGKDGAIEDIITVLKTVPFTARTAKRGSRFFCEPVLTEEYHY
UniProt P60953: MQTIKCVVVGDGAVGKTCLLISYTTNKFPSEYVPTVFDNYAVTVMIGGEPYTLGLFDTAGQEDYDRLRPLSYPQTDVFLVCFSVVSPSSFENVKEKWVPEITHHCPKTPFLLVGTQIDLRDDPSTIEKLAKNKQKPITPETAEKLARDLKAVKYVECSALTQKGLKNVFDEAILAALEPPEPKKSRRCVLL

Target: FMNL2 (S171DD) fused to GST (UniProt Q96PY5)
Assay: pull-down; Glutathione agarose, FMNL2GST as bait, equimolar test protein, 5 min RT then 30 min 4 °C, washed 6x with 50 mM Tris-HCl, 150 mM NaCl, pH 8.5; immunoblot, normalised Elution:FT ratio against GST only; both purified

**Q.** Which binding does the source give for “Cdc42 bound to a non-hydrolysable GTP analogue (Cdc42_(GppNHp)) (from UniProt P60953 1-191)” here?
**A.** binds
